Test results taken from paper doi:10.1101/2025.09.10.675342.

Chains of the proteins cited; added tags and fusions are not shown. Residues count along the entry.
UniProt P11835, residues 24-771: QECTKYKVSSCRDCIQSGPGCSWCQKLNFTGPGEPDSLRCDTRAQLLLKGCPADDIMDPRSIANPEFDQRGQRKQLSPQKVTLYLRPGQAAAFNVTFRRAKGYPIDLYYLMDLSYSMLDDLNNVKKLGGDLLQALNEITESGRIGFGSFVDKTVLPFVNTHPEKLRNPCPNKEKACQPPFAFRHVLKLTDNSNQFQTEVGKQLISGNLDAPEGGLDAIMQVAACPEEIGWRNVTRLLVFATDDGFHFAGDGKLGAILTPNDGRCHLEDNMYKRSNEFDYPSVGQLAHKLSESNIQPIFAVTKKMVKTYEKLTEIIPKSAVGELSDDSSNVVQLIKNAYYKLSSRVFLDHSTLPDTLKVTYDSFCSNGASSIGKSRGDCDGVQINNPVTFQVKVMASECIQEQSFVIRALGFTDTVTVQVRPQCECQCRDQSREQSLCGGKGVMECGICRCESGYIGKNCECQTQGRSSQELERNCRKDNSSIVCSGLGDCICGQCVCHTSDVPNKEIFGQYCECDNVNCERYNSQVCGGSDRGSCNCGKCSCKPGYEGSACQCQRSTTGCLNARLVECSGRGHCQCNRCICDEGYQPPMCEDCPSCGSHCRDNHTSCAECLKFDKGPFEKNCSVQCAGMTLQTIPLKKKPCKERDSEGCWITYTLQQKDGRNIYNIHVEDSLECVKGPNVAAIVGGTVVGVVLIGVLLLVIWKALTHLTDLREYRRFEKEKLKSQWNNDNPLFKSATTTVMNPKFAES

T1: SIRPα (endogenous, mouse BMDMs) (mouse (endogenous in BMDMs)) (UniProt P97797)
T1 sequence: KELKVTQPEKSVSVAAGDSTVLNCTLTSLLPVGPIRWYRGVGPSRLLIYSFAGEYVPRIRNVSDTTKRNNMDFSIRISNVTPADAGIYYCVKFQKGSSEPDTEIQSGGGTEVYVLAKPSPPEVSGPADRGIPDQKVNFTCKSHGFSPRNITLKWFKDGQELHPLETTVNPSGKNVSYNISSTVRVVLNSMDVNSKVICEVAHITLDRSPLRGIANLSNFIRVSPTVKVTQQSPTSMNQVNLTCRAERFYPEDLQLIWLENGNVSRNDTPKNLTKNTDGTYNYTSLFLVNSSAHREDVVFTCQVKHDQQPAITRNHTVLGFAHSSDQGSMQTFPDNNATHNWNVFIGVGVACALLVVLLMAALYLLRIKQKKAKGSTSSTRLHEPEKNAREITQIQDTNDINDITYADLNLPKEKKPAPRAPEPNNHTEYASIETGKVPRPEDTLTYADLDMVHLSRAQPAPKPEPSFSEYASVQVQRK


Molecular target: T1, SIRPα (endogenous, mouse BMDMs) (mouse (endogenous in BMDMs))
Test: affinity purification with mass spectrometry

Row | binding | Molecule
1 | binds | CD18 (β2 integrin) (endogenous, mouse BMDMs) (from UniProt P11835 24-771) (receptor)
2 | binds | CD45 (endogenous, mouse BMDMs) (protein, UniProt P06800 26-1293) QTPTPSDELSTTENALLLPQSDPLPARTTESTPPSISERGNGSSETTYHPGVLSTLLPHLSPQPDSQTPSAGGADTQTFSSQADNPTLTPAPGGGTDPPGVPGERTVPGTIPADTAFPVDTPSLARNSSAASPTHTSNVSTTDISSGASLTTLTPSTLGLASTDPPSTTIATTTKQTCAAMFGNITVNYTYESSNQTFKADLKDVQNAKCGNEDCENVLNNLEECSQIKNISVSNDSCAPATTIDLYVPPGTDKFSLHDCTPKEKANTSICLEWKTKNLDFRKCNSDNISYVLHCEPENNTKCIRRNTFIPERCQLDNLRAQTNYTCVAEILYRGVKLVKNVINVQTDLGIPETPKPSCGDPAARKTLVSWPEPVSKPESASKPHGYVLCYKNNSEKCKSLPNNVTSFEVESLKPYKYYEVSLLAYVNGKIQRNGTAEKCNFHTKADRPDKVNGMKTSRPTDNSINVTCGPPYETNGPKTFYILVVRSGGSFVTKYNKTNCQFYVDNLYYSTDYEFLVSFHNGVYEGDSVIRNESTNFNAKALIIFLVFLIIVTSIALLVVLYKIYDLRKKRSSNLDEQQELVERDDEKQLMDVEPIHSDILLETYKRKIADEGRLFLAEFQSIPRVFSKFPIKDARKPHNQNKNRYVDILPYDYNRVELSEINGDAGSTYINASYIDGFKEPRKYIAAQGPRDETVDDFWRMIWEQKATVIVMVTRCEEGNRNKCAEYWPSMEEGTRAFKDIVVTINDHKRCPDYIIQKLNVAHKKEKATGREVTHIQFTSWPDHGVPEDPHLLLKLRRRVNAFSNFFSGPIVVHCSAGVGRTGTYIGIDAMLEGLEAEGKVDVYGYVVKLRRQRCLMVQVEAQYILIHQALVEYNQFGETEVNLSELHSCLHNMKKRDPPSDPSPLEAEYQRLPSYRSWRTQHIGNQEENKKKNRNSNVVPYDFNRVPLKHELEMSKESEPESDESSDDDSDSEETSKYINASFVMSYWKPEMMIAAQGPLKETIGDFWQMIFQRKVKVIVMLTELVNGDQEVCAQYWGEGKQTYGDMEVEMKDTNRASAYTLRTFELRHSKRKEPRTVYQYQCTTWKGEELPAEPKDLVSMIQDLKQKLPKASPEGMKYHKHASILVHCRDGSQQTGLFCALFNLLESAETEDVVDVFQVVKSLRKARPGVVCSYEQYQFLYDIIASIYPAQNGQVKKTNSQDKIEFHNEVDGGKQDANCVRPDGPLNKAQEDSRGVGTPEPTNSAEEPEHAANGSASPAPTQSS

These are yes or no findings as the source states them, for the method shown. Binding seen in cells or lysates may run through a third protein. Here binding means that the protein was enriched with, or labelled near, the bait; the list need not be complete.
